# Reference: PubChem BioAssay AID2685 (National Center for Advancing Translational Sciences (NCATS), 2010)
# Some of the results follow. Further columns of the screen follow, without active or inactive calls. The list favours compounds with an active or inconclusive main result. Words in brackets tell the shape of the fitted curve; partial curves, single points and poor fits give uncertain potencies.
# Test: qHTS Assay for Lipid Storage Modulators in Drosophila S3 Cells;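 on cell number change: cells counted by Cell Tracker Red CMTPX staining in the red channel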
# Details: BODIPY lipid droplet fluorescence, 18-24 h; for cell number change: measured here: cell count max response, cells fed with added oleic acid
# How it was run: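 Drosophila S3 cells loaded with oleic acid (400 uM, as added) and compounds at several concentrations; lipid droplets imaged by 488-nm laser-scanning cytometry, 500–530 nm intensity and object ratio to cell channel. Percent activity normalized to 20 uM Triacsin C.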
# [1] = measured here: lipid fluorescence (Fed channel) AC50, cells fed with added oleic acid
# [2] = measured here: cell number channel AC50, cells fed with added oleic acid
SMILES,cell number change [%],AC50 [1],AC50 [2]
COc1ccccc1N(CC(=O)NC1CCCC1)S(=O)(=O)c1cccc(C(F)(F)F)c1,-17.5,"6.51 µM [rising, single point]",–
Cc1ccc(-c2csc3nnc(SCC(=O)NCc4ccc5c(c4)OCO5)n23)cc1,–,"1.84 µM [rising, full curve]","2.91 µM [rising, partial curve]"
CCOc1ccc(Oc2ccccc2NC(=O)C2=COCCO2)cc1,–,–,"6.51 µM [rising, single point]"
Cc1ccc(S(=O)(=O)CCC(=O)NCCN2C(=O)S/C(=C\c3ccccc3)C2=O)cc1,-15.3,"20.6 µM [falling, single point]",–
COC(=O)Cc1c(O)ccn(Cc2ccc(F)cc2)c1=O,-7.68,"9.2 µM [rising, partial curve]",–
Cc1ccc(C(=O)OCC(=O)NC(=O)c2cccn2C)cc1,-28.6,"3.66 µM [falling, full curve]","3.66 µM [falling, full curve, poor fit]"
O=C(Cc1cccs1)NCCc1ccc(Cl)cc1,-17.3,"1.46 µM [falling, partial curve]",–
CCC(=O)Nc1c2c(nn1-c1ccc(OC)cc1)CSC2,-12.2,"7.31 µM [rising, partial curve, poor fit]",–
Cc1ccc(N(CC2CO2)S(=O)(=O)c2ccccc2[N+](=O)[O-])cc1 (centres undefined),-25.6,–,–
COc1cc(OC)cc(C(=O)N[C@H](C(=O)Nc2nc(-c3ccc(F)c(F)c3)cs2)C(C)C)c1,-43.3,"16.4 µM [falling, single point]","32.6 µM [falling, single point]"
N#CCSc1nnc(-c2sc3ccccc3c2Cl)o1,13.2,"2.06 µM [rising, full curve]",–
CC(=O)Nc1ccc2nsnc2c1,-17.8,–,–
Clc1ccc(OCCNCCc2ccccc2)cc1,29.9,"29.1 µM [falling, single point]",–
O=c1ccnc(S/C=C/c2ccccc2)[nH]1,–,"0.731 µM [falling, full curve]",–
Cc1nn(C)c(C)c1CS(=O)(=O)c1ccccc1,4.87,"2.91 µM [rising, single point]","0.0651 µM [rising, full curve, poor fit]"
Cc1cc(NC(=O)c2ccccc2NS(=O)(=O)c2c(C)c(C)cc(C)c2C)no1,-30.4,–,"29.1 µM [falling, single point]"
CC(OC(=O)c1cc2sccc2n1C)C(=O)NCCc1ccccc1 (centres undefined),-3.5,"0.164 µM [rising, full curve, poor fit]",–
COc1c(C(=O)NC(=S)Nc2nnn(C)n2)cc2ccccc2c1Br,51.9,"5.8 µM [falling, single point]","1.46 µM [rising, partial curve]"
O=C(Cc1ccccc1)NCc1ccc(-n2cccc2)cc1,-9.54,–,–

SMILES,cell number change [%],AC50 [1],AC50 [2]
O=C(Nc1cccnc1Cl)c1ccc(=O)oc1,-24.4,"23.1 µM [falling, single point]",–
CCn1c(=O)c(CCC(=O)N2CCOCC2)c(C)c2c(C)nn(-c3ccccc3)c21,–,–,"6.51 µM [falling, single point]"
CSc1nc(C)c2c(n1)OC(CN1C(=O)c3ccccc3C1=O)C2 (centres undefined),-39.4,–,"8.2 µM [falling, partial curve]"
COc1ccc(-c2cc(=O)oc3c(O)c(O)ccc23)cc1,60.4,"3.66 µM [rising, full curve]","6.51 µM [rising, partial curve]"
CN(C)S(=O)(=O)c1cccc(C(=O)C2=C3SC=C(c4ccccc4)N3CC2)c1,8.51,"9.2 µM [rising, partial curve, poor fit]",–
Cc1ccc(-c2cc(C)nc3ncnn23)cc1,-18.9,"20.6 µM [falling, partial curve, poor fit]",–
O=S(=O)(N/N=C\C=C\c1ccccc1)c1ccc(Cl)cc1,–,"6.51 µM [falling, partial curve, poor fit]",–
C=C1C(=O)[C@@]23[C@H](O)C[C@@H]4C(C)(C)CC[C@H](O)[C@]4(C)[C@@H]2C[C@H](O)[C@@H]1[C@H]3O,-31.5,"16.4 µM [falling, partial curve]","18.4 µM [falling, partial curve, poor fit]"
O=C(Nc1ccc(Cl)cc1)c1cccnc1N1CCCCC1,116,"4.11 µM [rising, partial curve, poor fit]","5.8 µM [rising, partial curve]"
C=CCn1sc(N)c(C(=O)OCC)c1=S,2.84,–,–
COc1ccc2oc(=Nc3cccc(F)c3)c(C(N)=O)cc2c1,–,"6.51 µM [rising, partial curve, poor fit]","3.26 µM [rising, partial curve, poor fit]"
Cc1nc2scc(C)n2c(=O)c1S(=O)(=O)Nc1ccc(F)cc1,-3.17,"0.082 µM [rising, full curve, poor fit]",–
O=c1oc(-c2ccccc2)cc(Cl)c1Cl,-20.6,"4.61 µM [falling, partial curve, poor fit]",–
CCOC(=O)c1ccc(NC(=O)Cc2coc3cc4c(cc23)CCC4)cc1,-11.7,"2.06 µM [rising, partial curve]",–
O=c1[nH]nc(-c2ccc(NCCCO)c([N+](=O)[O-])c2)c2ccccc12,-6.73,–,–
COc1ccc(-n2c(N)c(C(=O)NCc3ccco3)sc2=S)cc1,16.3,–,–
COc1cc(OC)c(NS(=O)(=O)c2c(C)[nH]c(=O)[nH]c2=O)cc1Cl,30.3,–,"29.1 µM [rising, partial curve, poor fit]"
Cc1ccc(S(=O)(=O)N2CCc3ccccc3C2)cc1,-18.9,"29.1 µM [falling, single point]",–
COc1c(C)cc(Br)cc1C(=O)NC(=S)Nc1ccc(Cl)c(C(=O)O)c1,-8.19,"1.64 µM [falling, partial curve, poor fit]","4.11 µM [falling, single point]"

# For reference, part of the list above:
SMILES,cell number change [%],AC50 [1],AC50 [2]
Cc1ccc(S(=O)(=O)CCC(=O)NCCN2C(=O)S/C(=C\c3ccccc3)C2=O)cc1,-15.3,"20.6 µM [falling, single point]",–
COC(=O)Cc1c(O)ccn(Cc2ccc(F)cc2)c1=O,-7.68,"9.2 µM [rising, partial curve]",–
